The record followed here is paper PMC5123574, “Redox cofactors insertion in prokaryotic molybdoenzymes occurs via a conserved folding mechanism” (Scientific Reports, 2016).

For test [1], the target named is T1, NarH, electron-transfer subunit of nitrate reductase A, His-tagged (E. coli) (UniProt P11349).
T1 sequence: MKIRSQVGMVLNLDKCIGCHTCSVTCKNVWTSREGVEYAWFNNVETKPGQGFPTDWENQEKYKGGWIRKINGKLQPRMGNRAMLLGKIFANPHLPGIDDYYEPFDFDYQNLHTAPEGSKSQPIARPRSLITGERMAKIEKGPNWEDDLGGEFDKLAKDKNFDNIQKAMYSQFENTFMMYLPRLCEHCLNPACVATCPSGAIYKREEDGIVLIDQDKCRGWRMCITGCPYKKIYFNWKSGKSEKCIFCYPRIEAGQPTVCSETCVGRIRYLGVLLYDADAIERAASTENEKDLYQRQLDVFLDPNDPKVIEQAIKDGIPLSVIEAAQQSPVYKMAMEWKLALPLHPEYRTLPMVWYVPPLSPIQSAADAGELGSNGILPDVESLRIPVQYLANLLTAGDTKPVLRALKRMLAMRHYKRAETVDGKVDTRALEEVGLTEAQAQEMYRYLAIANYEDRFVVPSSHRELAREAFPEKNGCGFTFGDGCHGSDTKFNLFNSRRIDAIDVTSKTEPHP
Put plainly: co-purification by Ni-affinity chromatography; His-tagged NarGH complex co-expressed in E. coli JCB4023 and purified by Ni-affinity chromatography as in ref. 9.

The target in test [2] is T2, NarJ, dedicated chaperone of nitrate reductase A, bacterial two-hybrid fusion (E. coli) (UniProt P0AF26).
T2 sequence: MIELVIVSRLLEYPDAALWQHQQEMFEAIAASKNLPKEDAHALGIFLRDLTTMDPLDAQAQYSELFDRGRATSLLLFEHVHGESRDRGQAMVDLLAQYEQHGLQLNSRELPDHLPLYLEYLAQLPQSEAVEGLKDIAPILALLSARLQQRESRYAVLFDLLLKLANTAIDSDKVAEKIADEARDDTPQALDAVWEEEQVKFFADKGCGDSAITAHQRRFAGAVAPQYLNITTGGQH
Put plainly: two-hybrid; bacterial two-hybrid by reconstitution of adenylate cyclase activity; NarG forms as prey against NarJ; β-galactosidase activity (Miller units) in cells at mid-log phase, 30 °C, L-broth, 0.5 mM IPTG.

Positions count from the first letter of the chain named. Numbers in names are those of the source. No constants are given. Whether binding was seen depends on the method and setting. Some entries that bind do so weakly or less than the wild type. Where a sequence is shown, tags or fusion partners need not be part of it.

B1: NarG, nitrate-reducing subunit of nitrate reductase A, as co-expressed with His-tagged NarH (enzyme, UniProt P09152 1-1247)
chain: MSKFLDRFRYFKQKGETFADGHGQLLNTNRDWEDGYRQRWQHDKIVRSTHGVNCTGSCSWKIYVKNGLVTWETQQTDYPRTRPDLPNHEPRGCPRGASYSWYLYSANRLKYPMMRKRLMKMWREAKALHSDPVEAWASIIEDADKAKSFKQARGRGGFVRSSWQEVNELIAASNVYTIKNYGPDRVAGFSPIPAMSMVSYASGARYLSLIGGTCLSFYDWYCDLPPASPQTWGEQTDVPESADWYNSSYIIAWGSNVPQTRTPDAHFFTEVRYKGTKTVAVTPDYAEIAKLCDLWLAPKQGTDAAMALAMGHVMLREFHLDNPSQYFTDYVRRYTDMPMLVMLEERDGYYAAGRMLRAADLVDALGQENNPEWKTVAFNTNGEMVAPNGSIGFRWGEKGKWNLEQRDGKTGEETELQLSLLGSQDEIAEVGFPYFGGDGTEHFNKVELENVLLHKLPVKRLQLADGSTALVTTVYDLTLANYGLERGLNDVNCATSYDDVKAYTPAWAEQITGVSRSQIIRIAREFADNADKTHGRSMIIVGAGLNHWYHLDMNYRGLINMLIFCGCVGQSGGGWAHYVGQEKLRPQTGWQPLAFALDWQRPARHMNSTSYFYNHSSQWRYETVTAEELLSPMADKSRYTGHLIDFNVRAERMGWLPSAPQLGTNPLTIAGEAEKAGMNPVDYTVKSLKEGSIRFAAEQPENGKNHPRNLFIWRSNLLGSSGKGHEFMLKYLLGTEHGIQGKDLGQQGGVKPEEVDWQDNGLEGKLDLVVTLDFRLSSTCLYSDIILPTATWYEKDDMNTSDMHPFIHPLSAAVDPAWEAKSDWEIYKAIAKKFSEVCVGHLGKETDIVTLPIQHDSAAELAQPLDVKDWKKGECDLIPGKTAPHIMVVERDYPATYERFTSIGPLMEKIGNGGKGIAWNTQSEMDLLRKLNYTKAEGPAKGQPMLNTAIDAAEMILTLAPETNGQVAVKAWAALSEFTGRDHTHLALNKEDEKIRFRDIQAQPRKIISSPTWSGLEDEHVSYNAGYTNVHELIPWRTLSGRQQLYQDHQWMRDFGESLLVYRPPIDTRSVKEVIGQKSNGNQEKALNFLTPHQKWGIHSTYSDNLLMLTLGRGGPVVWLSEADAKDLGIADNDWIEVFNSNGALTARAVVSQRVPAGMTMMYHAQERIVNLPGSEITQQRGGIHNSVTRITPKPTHMIGGYAHLAYGFNYYGTVGSNRDEFVVVRKMKNIDWLDGEGNDQVQESVK
Turning to B1, in test [1], the binding result is listed as “binds”.

B2: NarG R108A, as co-expressed with His-tagged NarH (enzyme, UniProt P09152 1-1247)
chain: B1 chain with R108A
For B2, the binding entry in test [1] was “binds”.

B3: full-length NarG, bacterial two-hybrid fusion (pT25-NarG) (enzyme, UniProt P09152 1-1247)
chain: B1 chain
On to B3, for which the binding result in test [2] is on record as “binds”.

B4: NarG(Δ1-41), bacterial two-hybrid fusion (pT25-NarG(Δ1–41)) (domain or fragment, UniProt P09152 42-1247)
chain: HDKIVRSTHGVNCTGSCSWKIYVKNGLVTWETQQTDYPRTRPDLPNHEPRGCPRGASYSWYLYSANRLKYPMMRKRLMKMWREAKALHSDPVEAWASIIEDADKAKSFKQARGRGGFVRSSWQEVNELIAASNVYTIKNYGPDRVAGFSPIPAMSMVSYASGARYLSLIGGTCLSFYDWYCDLPPASPQTWGEQTDVPESADWYNSSYIIAWGSNVPQTRTPDAHFFTEVRYKGTKTVAVTPDYAEIAKLCDLWLAPKQGTDAAMALAMGHVMLREFHLDNPSQYFTDYVRRYTDMPMLVMLEERDGYYAAGRMLRAADLVDALGQENNPEWKTVAFNTNGEMVAPNGSIGFRWGEKGKWNLEQRDGKTGEETELQLSLLGSQDEIAEVGFPYFGGDGTEHFNKVELENVLLHKLPVKRLQLADGSTALVTTVYDLTLANYGLERGLNDVNCATSYDDVKAYTPAWAEQITGVSRSQIIRIAREFADNADKTHGRSMIIVGAGLNHWYHLDMNYRGLINMLIFCGCVGQSGGGWAHYVGQEKLRPQTGWQPLAFALDWQRPARHMNSTSYFYNHSSQWRYETVTAEELLSPMADKSRYTGHLIDFNVRAERMGWLPSAPQLGTNPLTIAGEAEKAGMNPVDYTVKSLKEGSIRFAAEQPENGKNHPRNLFIWRSNLLGSSGKGHEFMLKYLLGTEHGIQGKDLGQQGGVKPEEVDWQDNGLEGKLDLVVTLDFRLSSTCLYSDIILPTATWYEKDDMNTSDMHPFIHPLSAAVDPAWEAKSDWEIYKAIAKKFSEVCVGHLGKETDIVTLPIQHDSAAELAQPLDVKDWKKGECDLIPGKTAPHIMVVERDYPATYERFTSIGPLMEKIGNGGKGIAWNTQSEMDLLRKLNYTKAEGPAKGQPMLNTAIDAAEMILTLAPETNGQVAVKAWAALSEFTGRDHTHLALNKEDEKIRFRDIQAQPRKIISSPTWSGLEDEHVSYNAGYTNVHELIPWRTLSGRQQLYQDHQWMRDFGESLLVYRPPIDTRSVKEVIGQKSNGNQEKALNFLTPHQKWGIHSTYSDNLLMLTLGRGGPVVWLSEADAKDLGIADNDWIEVFNSNGALTARAVVSQRVPAGMTMMYHAQERIVNLPGSEITQQRGGIHNSVTRITPKPTHMIGGYAHLAYGFNYYGTVGSNRDEFVVVRKMKNIDWLDGEGNDQVQESVK
In the case of B4, in test [2], the binding result is “binds”.
